From PubChem BioAssay AID720591 (Broad Institute, 2013)
Hit rate of the full screen: of about 1,200 compounds, about 60 (5%) were called active. Another 1% or so got no clear call; they are omitted.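 Rule for the calls: active = Decreasing signal and fitted IC50 at most twice the top valid tested dose; inconclusive = Bad fit or a level curve showing 30 to 70% inhibition; inactive = the rest.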 This is one part of the list. Entries with a potency or affinity are not part of this list.

Sequences of proteins named here, by UniProt entry; tags and fusion partners are left off. A change or cut given only in a name is not applied to a line headed by its entry.
UniProt Q9NXA8: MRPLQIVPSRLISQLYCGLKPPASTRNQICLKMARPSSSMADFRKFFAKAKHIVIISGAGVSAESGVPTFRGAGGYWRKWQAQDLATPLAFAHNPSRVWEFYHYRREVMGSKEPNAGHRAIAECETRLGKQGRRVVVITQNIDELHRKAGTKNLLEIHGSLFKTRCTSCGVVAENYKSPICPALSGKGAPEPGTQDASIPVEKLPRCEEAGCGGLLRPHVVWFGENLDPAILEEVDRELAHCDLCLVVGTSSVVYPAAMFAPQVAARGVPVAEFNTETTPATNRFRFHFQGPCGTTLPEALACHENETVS

molecular target: NAD-dependent protein deacylase sirtuin-5, mitochondrial (Homo sapiens) (UniProt Q9NXA8); experiment: SIRT5 desuccinylase inhibitors, dose response, biochemical, fluorescence imaging, cherry-pick, set 5 (AID 720591); settings: Purified SirT5, succinyl-peptide AMC, trypsin-coupled fluorescence; at 15 µM (top of the series) unless noted;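 note: 0% = median of neutral control wells and -100% = median of positive control wells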

SMILES	activity change, negative = inhibition
C[C@H](CO)N1C[C@H](C)[C@@H](CN(C)CC2CCCCC2)Oc2c(NC(=O)Cc3ccccc3)cccc2C1=O	inactive: 9.88%
Cc1c(C(=O)N2CCOCC2)c(S(=O)(=O)Nc2ccccc2)c(C)n1C	inactive: -2.37%
Cc1cccc(-c2noc(CNC(=O)c3ccco3)n2)c1	inactive: 8.66%
CCOc1ccccc1NC(=O)COC(=O)C1CC(=O)N(c2c(C)cccc2C)C1 (stereo not drawn)	inactive: 21.8%
COc1ccc(OC)c2c1cc(C(=O)N[C@H](C(=O)N1CCC(C(=O)O)CC1)C(C)C)n2C	inactive: 4.85%
CNC(=O)NC(=O)CSc1nnc(-c2ccco2)n1-c1ccccc1	inactive: -7.81%
Cc1c(C(=O)c2ccccc2)c2ccccn2c1CCC#N	inactive: 16.4%
COC(=O)[C@]1(C)N[C@H](c2ccc(SC3CCCCC3)c(OC)c2)[C@@H]2C(=O)N(C)C(=O)[C@@H]21	inactive: -9.95%
COc1cc(C(=O)Nc2ccc(C)cc2C(NCC(=O)NN)c2ccccc2)cc(OC)c1OC (stereo not drawn)	inactive: -16.5%
O=C(COC(=O)CC1CC2CCC1C2)NCc1ccccc1 (stereo not drawn)	inactive: 15.9%
O=C(Nc1ccccc1C(=O)O)c1cc(S(=O)(=O)Nc2ccccc2)ccc1Cl	inactive: 15.5%
Cc1ccccc1N(C(=O)CS(=O)CC(=O)Nc1ccc(F)cc1)C(C)C(=O)NC(C)(C)C (stereo not drawn)	inactive: -31.5%
Cc1nn(CC(=O)N(C)C)c(=O)c2ccccc12	inactive: -8.69%
CN1CCN(C(=O)C2CCN(c3ncc(C(F)(F)F)cc3Cl)CC2)CC1	inactive: 2.29%
CC1(C(=O)NS(=O)(=O)c2ccccc2Cl)CCN1C(=O)Cc1cccc2ccccc12 (stereo not drawn)	inactive: 31.4%
O=C(CCC1CCCN(Cc2cccc3c2OCO3)C1)NCc1ccc(F)c(F)c1 (stereo not drawn)	inactive: -23.1%
COc1cc(CCC(=O)N2CCN(c3ccccc3)CC2)cc(OC)c1OC	inactive: 7.87%
COc1cc(C(=O)NCCCc2nc3ccccc3n2Cc2cc(C)ccc2C)cc(OC)c1OC	inactive: 9.81%
CC1CC(C)CN(S(=O)(=O)c2cc3c4c(c2)C(C)C(=O)N4CCC3)C1 (stereo not drawn)	inactive: -16.5%
COC(=O)c1ccc(-c2noc(CN3CCCC(CNC(C)=O)C3)n2)cc1 (stereo not drawn)	inactive: 36.6%
Cc1cc(F)ccc1NC(=O)C1CSC2(C)CCC(=O)N12 (stereo not drawn)	inactive: 16.9%
Cc1cc(N)n(-c2ccc(S(=O)(=O)c3ccc(C(C)C)cc3)cc2)n1	inactive: -33.2%

SMILES	activity change, negative = inhibition
C[C@]1(C(=O)NCc2cc(F)cc(C(F)(F)F)c2)C=C[C@@H](Cc2ccccc2)N1C(=O)c1ccccc1	inactive: 18.6%
Cc1cccc(N2CCN(C(=O)COc3ccc4c(C)cc(=O)oc4c3C)CC2)c1C	inactive: -12.8%
CCCc1c(C)nc2ccccc2c1SCCC#N	inactive: -30.4%
C[C@@H]1CN([C@H](C)CO)S(=O)(=O)c2ccc(C#Cc3ccccc3F)cc2O[C@@H]1CN(C)C(=O)Cc1ccccc1	inactive: -7.51%
CC1CCN(S(=O)(=O)c2cc3c4c(c2)C(C)C(=O)N4CCC3)CC1 (stereo not drawn)	inactive: -16.9%
COc1ccc(CC(=O)NCC2CCCN(Cc3ccc(OC(F)(F)F)cc3)C2)cc1 (stereo not drawn)	inactive: -23.7%
O=C(NCc1ccc(F)cc1)c1cccnc1C(=O)O	inactive: 8.78%
Cc1ccccc1OCC(=O)NCCNC(=O)c1ccccn1	inactive: -7.2%
CCN(c1ccccc1)S(=O)(=O)c1nnc(NC(=O)C(C)(C)C)s1	inactive: -1.58%
COc1ccc(C(CNC(=O)c2cccc(S(=O)(=O)N3CCCCC3)c2)N2CCCC2)cc1 (stereo not drawn)	inactive: -22.6%
COc1ccc(/C=C/c2nc3ccccc3c(=O)n2-c2cccc(C(=O)O)c2)cc1	inactive: 9.63%
C=CC(=O)N(CCC)C(c1ccccc1)c1ccccc1OC (stereo not drawn)	inactive: -4.06%
CCOC(=O)CCCCCC(=O)Nc1ccc2c(c1)C(=O)N([C@H](C)CO)C[C@@H](C)[C@@H](CN(C)S(=O)(=O)c1ccc(C)cc1)OCCCC[C@H](C)O2	inactive: 3.87%
Cn1cnc(CCNC(=O)C[C@H]2CC[C@@H]3[C@H](COC[C@H](O)CN3C(=O)C3CCCC3)O2)c1	inactive: -26.2%
COc1ccc(-c2[nH]ncc2CN(CCO)CC23CC4CC(CC(C4)C2)C3)c(OC)c1	inactive: -9.43%
COC(=O)c1ccc(C)c(NC(=O)CSc2sc3c(O)cc(=O)[nH]c3c2C#N)c1	inactive: -17%
COc1cccc(NC(=O)c2ccccc2)c1	inactive: -3.36%
Cc1cccc(N2CCN(C(=O)c3ccc4nc[nH]c4c3)CC2)c1C	inactive: -1.76%
CC(=O)C[C@@H](O)CC(=O)[C@@H]1OC(=O)CCCCC/C=C/Cc2ccccc21	inactive: 17.8%
CC1CCN(C(=O)CN(c2cccc(F)c2)S(C)(=O)=O)CC1	inactive: 14.6%
CCC(C)C(CO)NCCCn1cnc2c(SC)ncnc21 (stereo not drawn)	inactive: 4.95%

Three compounds out of the list, arranged by SMILES length, smallest number first:
SMILES	activity change, negative = inhibition
Cc1cc(F)ccc1NC(=O)C1CSC2(C)CCC(=O)N12 (stereo not drawn)	inactive: 16.9%
CC1CCN(S(=O)(=O)c2cc3c4c(c2)C(C)C(=O)N4CCC3)CC1 (stereo not drawn)	inactive: -16.9%
Cn1cnc(CCNC(=O)C[C@H]2CC[C@@H]3[C@H](COC[C@H](O)CN3C(=O)C3CCCC3)O2)c1	inactive: -26.2%
